According to patent publication US20240026461A1, “BCL10 MUTATIONS AS BIOMARKERS FOR TARGETED THERAPY IN B CELL LYMPHOMAS” (priority 2022, published 2024):
Residue numbers refer to the chain shown, from its start. Names and notes keep the numbering of the source. No constants are given. Whether binding was seen depends on the method and setting. In cells and extracts the contact can be indirect. Some entries that bind do so weakly or less than the wild type. Sequences can lack the tags named with a protein.

T1: MALT1 (Ig1-Ig2) (human, UniProt Q9UDY8 125-309)
T1 construct: domain: Ig1-Ig2; also called Ig1-Ig2 construct of MALT1; MALT1 (207-309)
T1 sequence (looked up): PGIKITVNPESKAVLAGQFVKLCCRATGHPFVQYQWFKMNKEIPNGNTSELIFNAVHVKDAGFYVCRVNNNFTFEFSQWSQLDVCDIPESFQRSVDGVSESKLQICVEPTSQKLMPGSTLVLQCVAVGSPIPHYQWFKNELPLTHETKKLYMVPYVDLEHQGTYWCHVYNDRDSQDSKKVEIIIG

B1: Flag-BCL10^WT (protein, not shown: small tags and cut ends)
chain: MEPTAPSLTEEDLTEVKKDALENLRVYLCEKIIAERHFDHLRAKKILSREDTEEISCRTSSRKRAGKLLDYLQENPKGLDTLVESIRREKTQNFLIQKITDEVLKLRNIKLEHLKGLKCSSCEPFPDGATNNLSRSNSDESNFSEKLRASTVMYHPEGESSTTPFFSTNSSLNLPVLEVGRTENTIFSSTTLPRPGDPGAPPLPPDLQLEEEGTCANSSEMFLPLRSRTVSRQ
B2: Flag-BCL10^R58Q (protein, not shown: small tags and cut ends)
chain: B1 chain with R58Q
B3: Flag-BCL10^R87Q (protein, not shown: small tags and cut ends)
chain: B1 chain with R87Q
B4: His-tagged BCL10 (165-233) (protein, not shown: small tags and cut ends)
chain: FFSTNSSLNLPVLEVGRTENTIFSSTTLPRPGDPGAPPLPPDLQLEEEGTCANSSEMFLPLRSRTVSRQ

How the values were obtained:
[1] = biological target: MALT1 (of the lymphoma cell lysates, detected with anti-MALT1) (UniProt Q9UDY8); assay: anti-Flag co-immunoprecipitation from Raji cells, anti-MALT1 blot
MALT1 (Ig1-Ig2) [2] = biological target: T1, MALT1 (Ig1-Ig2); assay: His pull-down after co-expression in E. coli, Coomassie-stained SDS-PAGE
Experimental: The inventors designed experiments to determine whether there were additional MALT1-binding sites on BCL10 at its largely unstructured C-terminus. The C-terminal region was divided into two halves and MALT1 pull-down studies were performed. […] Of note, unlike the interaction between BCL10 CARD and MALT1 death domain (DD) in the filamentous form, the interaction between BCL10 C-terminal region and MALT1 Ig1-Ig2 is monomeric as assessed by gel filtration chromatography of the complex.

MALT1 (Ig1-Ig2) [3] = biological target: T1, MALT1 (Ig1-Ig2); assay: His pull-down, SDS-PAGE

| Binder | binding [1] | also measured |
| --- | --- | --- |
| B1 | binds |  |
| B2 | binds |  |
| B3 | binds |  |
| B4 |  | binding (MALT1 (Ig1-Ig2) [2]): binds |
| FFSTNSSLNLPVLEVGRTENTIFSSTTLPRPGDPGAPPLPPDLQ (peptide, not shown: small tags and cut ends) [His-tagged BCL10 construct containing residues 165-208] |  | binding (MALT1 (Ig1-Ig2) [3]): binds |
